The other results are listed elsewhere or left out. Further columns of the screen follow, without active or inactive calls. The list favours compounds with an active or inconclusive main result. Potencies come from curve fits of mixed quality, noted in brackets.
Experiment: qHTS Assay to Find Inhibitors of Chronic Active B-Cell Receptor Signaling
Conditions: ABC-DLBCL IkBa-CBG/CBR reporter, luminescence ratio (green luciferase fused to IkBa over red control in TMD8 lymphoma cells), 4 h
How it was run: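 TMD8 human ABC-DLBCL cells with doxycycline-inducible IκBα–green luciferase fusion and unfused red luciferase, in 0.5% FBS medium; compounds up to 46 uM, 4 h at 37C. Green/red luminescence ratio, filter-overlap corrected, fitted to concentration-response curves.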

[1] = measured here: CBR red luminescence, cell number
[2] = measured here: IkBa-CBG green luminescence

Structure (SMILES) | AC50 [1] | AC50 [2]
OC(CNCc1ccc(F)cc1)(c1ccc(F)cc1)c1ccc(F)cc1 | 14.1 µM [falling, single point] | 
Cc1nc2c(ccc3nc(NC(=O)Cc4cccc5ccccc45)sc32)s1 |  | 3.66 µM [rising, full curve, poor fit]
CC(C)C(=O)Nc1ccc(-c2nc3cccnc3o2)cc1 | 2.31 µM [rising, partial curve] | 
O=S(=O)(c1ccc(-c2ccon2)s1)N1CCCC1 | 6.31 µM [falling, single point] | 
O=[N+]([O-])c1ccc(O)c(-c2nn[nH]n2)c1 | 4.61 µM [falling, full curve, poor fit] | 
O=C(Nc1cc(C(F)(F)F)ccc1N1CCOCC1)c1cccs1 | 0.82 µM [rising, full curve, poor fit] | 
O=C(CCCN1C(=O)/C(=C\c2cccs2)SC1=S)NNC(=O)c1ccncc1 | 2.24 µM [falling, full curve, poor fit] | 
O=C(Nc1nnc(C2CC2)s1)C1Cc2ccccc2CN1C(=O)c1ccco1 (configuration not stated) | 2 µM [rising, full curve, poor fit] | 
COC(=O)c1ccc(-c2ccco2)n1Cc1nc(-c2ccc(OC)c(OC)c2)oc1C | 1.03 µM [falling, partial curve, poor fit] | 
CC(=O)NS(=O)(=O)c1cccnc1Nc1ccc(Cl)c(Cl)c1 | 11.6 µM [rising, single point] | 
O=C(c1ccc(C(F)(F)F)cc1)N1CCC(=O)N(C(COCc2ccc(C(F)(F)F)cc2)Cc2ccccc2)CC1 (configuration not stated) | 25.9 µM [falling, single point] | 
CCOC(=O)c1c(N)sc2c1CCCC2 | 25.1 µM [falling, partial curve, poor fit] | 
NS(=O)(=O)c1ccc(NC(=O)CSc2nc3ccccc3n2-c2ccccc2)cc1 | 20.6 µM [falling, partial curve] | 20.6 µM [rising, partial curve, poor fit]
CCOc1ccc(-n2c(=S)sc3c(=O)[nH]c(SCC(=O)C(C)(C)C)nc32)cc1 | 3.16 µM [falling, partial curve, poor fit] | 
O=C(O)c1cc(NN=C2c3ccccc3-c3ccccc32)ccc1Cl | 12.6 µM [falling, partial curve] | 
CN(C)S(=O)(=O)c1cccc(NC(=O)C2Cc3ccccc3CN2C(=O)c2ccco2)c1 (configuration not stated) | 35.5 µM [falling, single point] | 
COc1cc(Cl)cc2c1Sc1ccccc1/C2=C/CCN(C)C | 35.5 µM [falling, single point] | 
COc1ccc(C(=O)N/N=C/c2ccc(OC)c(CSc3ccccn3)c2)cc1 |  | 20.6 µM [rising, partial curve, poor fit]
CCc1nn2c(=O)cc(COC(=O)c3cc(Cl)c(OC)c(OC)c3)nc2s1 | 3.26 µM [rising, partial curve, poor fit] | 
COc1ccccc1C(=O)N(Cc1cccs1)C1CCS(=O)(=O)C1 (configuration not stated) | 35.5 µM [rising, single point] | 
Cc1ccc(NC(=O)NNC(=O)c2ccccc2)cc1 | 22.4 µM [falling, single point] | 

A few values from above.
Value of `OC(CNCc1ccc(F)cc1)(c1ccc(F)cc1)c1ccc(F)cc1` under AC50 [1]: 14.1 µM [falling, single point]
Value of `O=S(=O)(c1ccc(-c2ccon2)s1)N1CCCC1` under AC50 [1]: 6.31 µM [falling, single point]

Remaining list, next part

Structure (SMILES) | AC50 [1] | AC50 [2]
CCN1C=CC(=C2C(=O)c3ccccc3C2=O)C=C1 | 7.08 µM [falling, partial curve, poor fit] | 
CCCCOc1cccc(NC(=O)CSc2nccn2C)c1 | 3.66 µM [rising, full curve, poor fit] | 
COc1ccccc1C(=O)NNC(=O)c1ccc(Br)o1 | 17.8 µM [falling, partial curve, poor fit] | 
Cc1nc(/C=C/c2ccccc2)[nH]c(=O)c1-c1ccccc1 | 1.03 µM [rising, full curve, poor fit] | 
CC1(C)CC(=O)C=C(Nc2ccccc2)C1 | 8.91 µM [falling, partial curve, poor fit] | 
Cn1c2c(c3ccccc31)CCN1CCC[C@]21c1ccccc1 | 3.98 µM [falling, full curve, poor fit] | 
CCc1ccc(OCC(=O)NC(NC(=S)Nc2ccccc2C)C(Cl)(Cl)Cl)cc1 (configuration not stated) | 16.4 µM [falling, partial curve, poor fit] | 
CC(C)[C@H](NC(=O)c1c(F)cccc1F)C(=O)Nc1cccc(Br)c1 | 17.8 µM [rising, partial curve, poor fit] | 
O=C(O)Cc1csc(Nc2cccc(Cl)c2)n1 | 0.731 µM [rising, partial curve, poor fit] | 
O=c1c(-c2ccccc2)c(O)c2ccccc2n1-c1ccccc1 | 35.5 µM [rising, partial curve, poor fit] | 
O=C(Nc1ccc2c(c1)OCCO2)c1cccc(Cl)c1Cl | 12.6 µM [falling, partial curve, poor fit] | 
CCOc1ccccc1C(=O)NC1CC2CCCC(C1)N2Cc1nnnn1Cc1ccco1 (configuration not stated) | 2.51 µM [rising, partial curve, poor fit] | 
O=C(CN1CCc2ccccc2C1)NCC(=O)Nc1ccc(F)cc1 | 8.91 µM [falling, partial curve] | 
N#Cc1nc(-c2ccc(Cl)cc2)oc1N1CCCCC1 | 3.55 µM [rising, partial curve, poor fit] | 
O=C(Nc1ccccc1O)c1csc2c1CCCC2 | 5.62 µM [falling, partial curve] | 
Nc1ccccc1C(=O)Nc1cccc(C(=O)O)c1 | 3.16 µM [falling, full curve] | 
COc1cccc(Cn2nnc(C(=O)Nc3cc(C)ccc3OC)c2N)c1 | 12.6 µM [rising, partial curve, poor fit] | 
CCC(C)c1ccc(C(C)NC(=S)NC2CCCCC2)cc1 (configuration not stated) | 22.4 µM [falling, single point] | 
CC1CCN(c2c([N+](=O)[O-])c(=O)n(-c3ccccc3)c3ccccc23)CC1 | 4.47 µM [falling, full curve, poor fit] | 
CCOCCCNC(=O)C1CCN(S(=O)(=O)N2CCCC2)CC1 | 2.24 µM [falling, full curve, poor fit] | 
